Test results: patent US11065203B2, “Liposomal compositions and uses of same” (Technion Research & Development Foundation Limited, priority 2009, dated 2021)

B1: P49419 (protein, UniProt P49419 1-539, looked up)
chain: MWRLPRALCVHAAKTSKLSGPWSRPAAFMSTLLINQPQYAWLKELGLREENEGVYNGSWGGRGEVITTYCPANNEPIARVRQASVADYEETVKKAREAWKIWADIPAPKRGEIVRQIGDALREKIQVLGSLVSLEMGKILVEGVGEVQEYVDICDYAVGLSRMIGGPILPSERSGHALIEQWNPVGLVGIITAFNFPVAVYGWNNAIAMICGNVCLWKGAPTTSLISVAVTKIIAKVLEDNKLPGAICSLTCGGADIGTAMAKDERVNLLSFTGSTQVGKQVGLMVQERFGRSLLELGGNNAIIAFEDADLSLVVPSALFAAVGTAGQRCTTARRLFIHESIHDEVVNRLKKAYAQIRVGNPWDPNVLYGPLHTKQAVSMFLGAVEEAKKEGGTVVYGGKVMDRPGNYVEPTIVTGLGHDASIAHTETFAPILYVFKFKNEEEVFAWNNEVKQGLSSSIFTKDLGRIFRWLGPKGSDCGIVNVNIPTSGAEIGGAFGGEKHTGGGRESGSDAWKQYMRRSTCTINYSKDLPLAQGIKFQ
modifications: full-length
B2: Q9Y3I0 (protein, UniProt Q9Y3I0 1-505, looked up)
chain: MSRSYNDELQFLEKINKNCWRIKKGFVPNMQVEGVFYVNDALEKLMFEELRNACRGGGVGGFLPAMKQIGNVAALPGIVHRSIGLPDVHSGYGFAIGNMAAFDMNDPEAVVSPGGVGFDINCGVRLLRTNLDESDVQPVKEQLAQAMFDHIPVGVGSKGVIPMNAKDLEEALEMGVDWSLREGYAWAEDKEHCEEYGRMLQADPNKVSARAKKRGLPQLGTLGAGNHYAEIQVVDEIFNEYAAKKMGIDHKGQVCVMIHSGSRGLGHQVATDALVAMEKAMKRDKIIVNDRQLACARIASPEGQDYLKGMAAAGNYAWVNRSSMTFLTRQAFAKVFNTTPDDLDLHVIYDVSHNIAKVEQHVVDGKERTLLVHRKGSTRAFPPHHPLIAVDYQLTGQPVLIGGTMGTCSYVLTGTEQGMTETFGTTCHGAGRALSRAKSRRNLDFQDVLDKLADMGIAIRVASPKLVMEEAPESYKNVTDVVNTCHDAGISKKAIKLRPIAVIKG
modifications: full-length
B3: Q969X5 (protein, UniProt Q969X5 1-290, looked up)
chain: MPFDFRRFDIYRKVPKDLTQPTYTGAIISICCCLFILFLFLSELTGFITTEVVNELYVDDPDKDSGGKIDVSLNISLPNLHCELVGLDIQDEMGRHEVGHIDNSMKIPLNNGAGCRFEGQFSINKVPGNFHVSTHSATAQPQNPDMTHVIHKLSFGDTLQVQNIHGAFNALGGADRLTSNPLASHDYILKIVPTVYEDKSGKQRYSYQYTVANKEYVAYSHTGRIIPAIWFRYDLSPITVKYTERRQPLYRFITTICAIIGGTFTVAGILDSCIFTASEAWKKIQLGKMH
modifications: full-length
B4: P42765 (protein, UniProt P42765 1-397, looked up)
chain: MALLRGVFVVAAKRTPFGAYGGLLKDFTATDLSEFAAKAALSAGKVSPETVDSVIMGNVLQSSSDAIYLARHVGLRVGIPKETPALTINRLCGSGFQSIVNGCQEICVKEAEVVLCGGTESMSQAPYCVRNVRFGTKLGSDIKLEDSLWVSLTDQHVQLPMAMTAENLAVKHKISREECDKYALQSQQRWKAANDAGYFNDEMAPIEVKTKKGKQTMQVDEHARPQTTLEQLQKLPPVFKKDGTVTAGNASGVADGAGAVIIASEDAVKKHNFTPLARIVGYFVSGCDPSIMGIGPVPAISGALKKAGLSLKDMDLVEVNEAFAPQYLAVERSLDLDISKTNVNGGAIALGHPLGGSGSRITAHLVHELRRRGGKYAVGSACIGGGQGIAVIIQSTA
modifications: full-length
B5: P12814 (protein, UniProt P12814 1-892, looked up)
chain: MDHYDSQQTNDYMQPEEDWDRDLLLDPAWEKQQRKTFTAWCNSHLRKAGTQIENIEEDFRDGLKLMLLLEVISGERLAKPERGKMRVHKISNVNKALDFIASKGVKLVSIGAEEIVDGNVKMTLGMIWTIILRFAIQDISVEETSAKEGLLLWCQRKTAPYKNVNIQNFHISWKDGLGFCALIHRHRPELIDYGKLRKDDPLTNLNTAFDVAEKYLDIPKMLDAEDIVGTARPDEKAIMTYVSSFYHAFSGAQKAETAANRICKVLAVNQENEQLMEDYEKLASDLLEWIRRTIPWLENRVPENTMHAMQQKLEDFRDYRRLHKPPKVQEKCQLEINFNTLQTKLRLSNRPAFMPSEGRMVSDINNAWGCLEQVEKGYEEWLLNEIRRLERLDHLAEKFRQKASIHEAWTDGKEAMLRQKDYETATLSEIKALLKKHEAFESDLAAHQDRVEQIAAIAQELNELDYYDSPSVNARCQKICDQWDNLGALTQKRREALERTEKLLETIDQLYLEYAKRAAPFNNWMEGAMEDLQDTFIVHTIEEIQGLTTAHEQFKATLPDADKERLAILGIHNEVSKIVQTYHVNMAGTNPYTTITPQEINGKWDHVRQLVPRRDQALTEEHARQQHNERLRKQFGAQANVIGPWIQTKMEEIGRISIEMHGTLEDQLSHLRQYEKSIVNYKPKIDQLEGDHQLIQEALIFDNKHTNYTMEHIRVGWEQLLTTIARTINEVENQILTRDAKGISQEQMNEFRASFNHFDRDHSGTLGPEEFKACLISLGYDIGNDPQGEAEFARIMSIVDPNRLGVVTFQAFIDFMSRETADTDTADQVMASFKILAGDKNYITMDELRRELPPDQAEYCIARMAPYTGPDSVPGALDYMSFSTALYGESDL
modifications: full-length
B6: P12110 (protein, UniProt P12110 1-1019, looked up)
chain: MLQGTCSVLLLWGILGAIQAQQQEVISPDTTERNNNCPEKTDCPIHVYFVLDTSESVTMQSPTDILLFHMKQFVPQFISQLQNEFYLDQVALSWRYGGLHFSDQVEVFSPPGSDRASFIKNLQGISSFRRGTFTDCALANMTEQIRQDRSKGTVHFAVVITDGHVTGSPCGGIKLQAERAREEGIRLFAVAPNQNLKEQGLRDIASTPHELYRNDYATMLPDSTEIDQDTINRIIKVMKHEAYGECYKVSCLEIPGPSGPKGYRGQKGAKGNMGEPGEPGQKGRQGDPGIEGPIGFPGPKGVPGFKGEKGEFGADGRKGAPGLAGKNGTDGQKGKLGRIGPPGCKGDPGNRGPDGYPGEAGSPGERGDQGGKGDPGRPGRRGPPGEIGAKGSKGYQGNSGAPGSPGVKGAKGGPGPRGPKGEPGRRGDPGTKGSPGSDGPKGEKGDPGPEGPRGLAGEVGNKGAKGDRGLPGPRGPQGALGEPGKQGSRGDPGDAGPRGDSGQPGPKGDPGRPGFSYPGPRGAPGEKGEPGPRGPEGGRGDFGLKGEPGRKGEKGEPADPGPPGEPGPRGPRGVPGPEGEPGPPGDPGLTECDVMTYVRETCGCCDCEKRCGALDVVFVIDSSESIGYTNFTLEKNFVINVVNRLGAIAKDPKSETGTRVGVVQYSHEGTFEAIQLDDERIDSLSSFKEAVKNLEWIAGGTWTPSALKFAYDRLIKESRRQKTRVFAVVITDGRHDPRDDDLNLRALCDRDVTVTAIGIGDMFHEKHESENLYSIACDKPQQVRNMTLFSDLVAEKFIDDMEDVLCPDPQIVCPDLPCQTELSVAQCTQRPVDIVFLLDGSERLGEQNFHKARRFVEQVARRLTLARRDDDPLNARVALLQFGGPGEQQVAFPLSHNLTAIHEALETTQYLNSFSHVGAGVVHAINAIVRSPRGGARRHAELSFVFLTDGVTGNDSLHESAHSMRKQNVVPTVLALGSDVDMDVLTTLSLGDRAAVFHEKDYDSLAQPGFFDRFIRWIC
modifications: full-length
B7: P55145 (protein, UniProt P55145 1-182, looked up)
chain: MRRMWATQGLAVALALSVLPGSRALRPGDCEVCISYLGRFYQDLKDRDVTFSPATIENELIKFCREARGKENRLCYYIGATDDAATKIINEVSKPLAHHIPVEKICEKLKKKDSQICELKYDKQIDLSTVDLKKLRVKELKKILDDWGETCKGCAEKSDYIRKINELMPKYAPKAASARTDL
modifications: full-length

Experiment: Proteomics analysis (trypsin digest, LC-MS/MS) of hMSC ghosts and derived CDLs, conditioned or unconditioned by PC3 medium
Parameters: species or system human
Details: LC-MS/MS peak area per protein; for Ratio of expression Cond. CDLs/Cond. Ghosts: CDLs derived from conditioned hMSCs versus conditioned ghosts; for Ratio of expression Cond Ghosts/Ghosts: hMSC ghosts conditioned by PC3 medium versus unconditioned ghosts

Molecule	Ratio of expression Cond. CDLs/Cond. Ghosts	Ratio of expression Cond Ghosts/Ghosts
B1	3%	66%
B2	8%	72%
B3	8%	186%
B4	2%	79%
B5	4%	70%
B6	3%	81%
B7	2%	71%
